Measurements: PubChem BioAssay AID256 (DTP/NCI, 2004)
The list does not hold the whole screen: it gathers tests that were run many times, whatever their T/C, doses with no T/C, and many T/C values between a quarter and a half above the control. Other doses and runs of a compound stand elsewhere. T/C: endpoint of the treated group in % of that of the vehicle group. Some entries give survivors of the animals treated and no T/C: the source files T/C as zero there, which appears to mark a toxic dose or a test without result, not a measured value. Some doses without a T/C left all or most animals alive at the check, yet need not have been tolerated: survival well below the control is almost never listed, so the zero probably covers shortened survival too. Counts of survivors are from the toxicity check (mostly the fifth day) where no day follows; animals may have died later. Schedule codes are those of the source, read here as Q, the interval in days (D) or hours (H), X, the number of doses. Some entries hold several experiments; the results are listed from low to high. Where survival is the endpoint, this PubChem deposit counts one and a half times the control or more as active, and values a quarter to a half above the control carry no call in these data; other NCI protocols may use other cut-offs. Some schedules carry Z or #; the key to these is not given. Some T/C values are followed by the survivors on the day toxicity was checked, most often the fifth; without a count, all were alive then.

Tested on: CD2F1 mice, L1210 leukemia ip, survival T/C
Test: NCI In Vivo Anticancer Drug Screen. Data for tumor model L1210 Leukemia (intraperitoneal) in CD2F1 (CDF1) mice
Conditions: higher T/C = longer survival
Method in brief: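 Activity against a transplanted murine tumor was judged by comparing the compound group with a vehicle group. The outcome in the treated animals was divided by that in the controls.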

[1] = T/C endpoint: mean survival time, dose: 400.0 mg/kg/injection, schedule: Q01DX009 (ip), vehicle: saline with Tween-80
[2] = T/C endpoint: mean survival time, dose: 50.0 mg/kg/injection, schedule: Q01DX009 (ip), vehicle: saline with Tween-80
[3] = T/C endpoint: mean survival time, dose: 200.0 mg/kg/injection, schedule: Q04DX003 (ip), vehicle: saline
[4] = T/C endpoint: mean survival time, dose: 400.0 mg/kg/injection, schedule: Q04DX003 (ip), vehicle: saline
[5] = T/C endpoint: mean survival time, dose: 400.0 mg/kg/injection, schedule: Q04DX003 (ip), vehicle: saline with Tween-80

COc1cc(C)n2nnnc2n1
survivor count (T/C endpoint: mean survival time, dose: 200.0 mg/kg/injection, schedule: Q01DX001 (ip), vehicle: saline): 0 of 3
survivor count (T/C endpoint: mean survival time, dose: 400.0 mg/kg/injection, schedule: Q01DX001 (ip), vehicle: saline): 0 of 3

c1ccc2nc3ccccc3cc2c1
survivor count [1]: 4 of 6

O=C(CC(=Nc1ccccc1)c1ccccc1)c1ccccc1.O=C(CC(=Nc1ccccc1)c1ccccc1)c1ccccc1.[Cu]
survivor count [2]: 3 of 6

C[n+]1c(-c2cc(C(F)(F)F)cc(C(F)(F)F)c2)c2cc(N)ccc2c2ccc(N)cc21
survivor count (T/C endpoint: mean survival time, dose: 200.0 mg/kg/injection, schedule: Q01DX005 (ip), vehicle: saline with Tween-80): 6 of 6

CCC1(O)C(=O)OCc2c1cc1n(c2=O)Cc2cc3cc(N)ccc3nc2-1 (centres undefined)
survivor count (T/C endpoint: median survival time, dose: 10.42 mg/kg/injection, schedule: Q01DX005 (ip), vehicle: saline): 6 of 6
survivor count (T/C endpoint: median survival time, dose: 32.0 mg/kg/injection, schedule: Q04DX002 (ip), vehicle: saline): 6 of 6

N#[N+]c1cnc([O-])[nH]c1=O
T/C (T/C endpoint: mean survival time, dose: 4.0 mg/kg/injection, schedule: Q03DX Z (ip), vehicle: saline): 125 % of control
T/C (T/C endpoint: mean survival time, dose: 8.0 mg/kg/injection, schedule: Q01DX001 (ip), vehicle: saline): 130 % of control [5 of 6 alive]
T/C (T/C endpoint: mean survival time, dose: 8.0 mg/kg/injection, schedule: Q03DX Z (ip), vehicle: saline): 127 % of control
T/C (T/C endpoint: mean survival time, dose: 16.0 mg/kg/injection, schedule: Q01DX001 (ip), vehicle: saline): 133 % of control
T/C (T/C endpoint: mean survival time, dose: 16.0 mg/kg/injection, schedule: Q03DX Z (ip), vehicle: saline): 145 % of control [5 of 6 alive]
survivor count (T/C endpoint: mean survival time, dose: 64.0 mg/kg/injection, schedule: Q01DX001 (ip), vehicle: saline): 0 of 6 and 6 of 6

NC1CCCCC1N.O=C([O-])c1ccc(N=Nc2cccc([N+](=O)[O-])c2)cc1O.O=C([O-])c1ccc(N=Nc2cccc([N+](=O)[O-])c2)cc1O.[Pt+4]
survivor count (T/C endpoint: median survival time, dose: 50.0 mg/kg/injection, schedule: Q04DX003 (ip), vehicle: saline with Tween-80): 2 of 6
survivor count (T/C endpoint: median survival time, dose: 100.0 mg/kg/injection, schedule: Q04DX003 (ip), vehicle: saline with Tween-80): 0 of 6 and 4 of 6
survivor count (T/C endpoint: median survival time, dose: 200.0 mg/kg/injection, schedule: Q04DX003 (ip), vehicle: saline with Tween-80): 0 of 6

COC(=O)c1c[nH]c(=S)n1C(C)c1ccccc1 (centres undefined)
survivor count [1]: 3 of 6

COc1ccc(C(O)C#N)cc1O (centres undefined)
survivor count (T/C endpoint: mean survival time, dose: 25.0 mg/kg/injection, schedule: Q04DX003 (ip), vehicle: saline): 1 of 6
survivor count (T/C endpoint: mean survival time, dose: 100.0 mg/kg/injection, schedule: Q04DX003 (ip), vehicle: saline): 0 of 6
survivor count [3]: 0 of 6
survivor count [4]: 0 of 6

O=C1C(NCCO)=C(N2CC2)C(=O)C(NCCO)=C1N1CC1
T/C (T/C endpoint: median survival time, dose: 0.12 mg/kg/injection, schedule: Q01DX009 (ip), vehicle: saline): 130 % of control

CCC[CH2][Sn]1([CH2]CCC)[O]C2C(CO)OC(n3ccc(N)nc3=O)C2[O]1 (centres undefined)
T/C (T/C endpoint: mean survival time, dose: 3.12 mg/kg/injection, schedule: Q01DX009 (ip), vehicle: Klucel (hydroxypropylcellulose) (HPC)): 125 % of control
survivor count (T/C endpoint: mean survival time, dose: 12.5 mg/kg/injection, schedule: Q01DX005 (ip), vehicle: other): 3 of 6
survivor count (T/C endpoint: mean survival time, dose: 12.5 mg/kg/injection, schedule: Q01DX009 (ip), vehicle: Klucel (hydroxypropylcellulose) (HPC)): 0 of 6
survivor count (T/C endpoint: mean survival time, dose: 25.0 mg/kg/injection, schedule: Q01DX005 (ip), vehicle: other): 0 of 6
survivor count (T/C endpoint: mean survival time, dose: 25.0 mg/kg/injection, schedule: Q01DX009 (ip), vehicle: Klucel (hydroxypropylcellulose) (HPC)): 0 of 6

Cc1cc(N(CCCOS(C)(=O)=O)CCCOS(C)(=O)=O)ccc1C=Nc1ccc(-c2csc(COc3ccccc3)n2)cc1
survivor count [1]: 6 of 6

CC(=O)Nc1cccc(N)c1
survivor count [3]: 2 of 6
survivor count [4]: 0 of 6

N#C/C(=C\c1ccc(-c2ccccc2)cc1)c1ccc(Cl)cc1
survivor count (T/C endpoint: mean survival time, dose: 100.0 mg/kg/injection, schedule: Q04DX003 (ip), vehicle: saline with Tween-80): 6 of 6
survivor count [5]: 5 of 6

N#CCN1CCc2ccccc2C1
survivor count (T/C endpoint: mean survival time, dose: 400.0 mg/kg/injection, schedule: Q04DX003 (ip), vehicle: Klucel (hydroxypropylcellulose) (HPC)): 5 of 6

CC1CP(c2ccccc2)(c2ccccc2)(c2ccccc2)OC1(C(=O)c1ccccc1)c1ccccc1 (centres undefined)
survivor count [2]: 3 of 6
survivor count (T/C endpoint: mean survival time, dose: 100.0 mg/kg/injection, schedule: Q01DX009 (ip), vehicle: saline with Tween-80): 1 of 6
survivor count (T/C endpoint: mean survival time, dose: 200.0 mg/kg/injection, schedule: Q04DX003 (ip), vehicle: saline with Tween-80): 0 of 6
survivor count [5]: 0 of 6

CCC1=C[C@H]2CN(CCc3c([nH]c4ccccc34)[C@@](C(=O)OC)(c3cc4c(cc3OC)N(C)[C@H]3[C@@](O)(C(=O)OC)[C@H](OC(C)=O)[C@]5(CC)C=CCN6CC[C@]43[C@@H]65)C2)C1
T/C (T/C endpoint: mean survival time, dose: 0.5 mg/kg/injection, schedule: Q01DX009 (ip), vehicle: water): 127 % of control
T/C (T/C endpoint: mean survival time, dose: 1.0 mg/kg/injection, schedule: Q01DX009 (ip), vehicle: water): 143 % of control
survivor count (T/C endpoint: mean survival time, dose: 8.0 mg/kg/injection, schedule: Q01DX009 (ip), vehicle: water): 0 of 6
T/C (T/C endpoint: median survival time, dose: 1.0 mg/kg/injection, schedule: Q01DX009 (ip), vehicle: water): 130 % of control
T/C (T/C endpoint: median survival time, dose: 2.0 mg/kg/injection, schedule: Q01DX009 (ip), vehicle: water): 140 % of control
survivor count (T/C endpoint: median survival time, dose: 4.0 mg/kg/injection, schedule: Q01DX009 (ip), vehicle: water): 10 of 10
survivor count (T/C endpoint: median survival time, dose: 8.0 mg/kg/injection, schedule: Q01DX009 (ip), vehicle: water): 2 of 5

CN(C)c1ccc(N=Nc2ccc(S(=O)(=O)O)cc2)cc1.CN(C)c1ccc(N=Nc2ccc(S(=O)(=O)O)cc2)cc1.[NH-]C1CCCCC1[NH-].[Pt+2]
T/C (T/C endpoint: median survival time, dose: 6.25 mg/kg/injection, schedule: Q04DX003 (ip), vehicle: saline): 139 % of control
T/C (T/C endpoint: median survival time, dose: 100.0 mg/kg/injection, schedule: Q04DX003 (ip), vehicle: saline): 139 % of control
survivor count (T/C endpoint: median survival time, dose: 200.0 mg/kg/injection, schedule: Q04DX003 (ip), vehicle: saline): 2 of 6

C=Cc1cc(OC)c2c(c1)c(=O)oc1c2cc(OC)c2c(O)ccc(C3OC(C(C)O)C(O)C3O)c21 (centres undefined)
survivor count (T/C endpoint: median survival time, dose: 200.0 mg/kg/injection, schedule: Q01DX009 (ip), vehicle: Klucel (hydroxypropylcellulose) (HPC)): 2 of 6

CC(=O)C(C)OS(C)(=O)=O (centres undefined)
survivor count [5]: 6 of 6
